Results published in PubChem BioAssay AID493014 (National Center for Advancing Translational Sciences (NCATS), 2011).
The campaign covered roughly 340,000 compounds. About 170 (0.05%) were called active. Inconclusive means that the source gave no clear call. Such entries were picked first, then a sample of the others. Calls follow the shape of the dose curve; as a rule, active = well fitted inhibition curve with a large enough effect in the signal ratio, with a control signal flat (not every such curve was filed as active); inconclusive = small, poorly fitted or top-dose-only effect, or effect the other way, or a change in a side signal; inactive = flat fitted curve, though single readings scatter; the % refers to the signal ratio. Where the call is inconclusive, the potency comes from a doubtful curve fit.

Assay: qHTS Assay to Find Inhibitors of Chronic Active B-Cell Receptor Signaling;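 as to activity change, negative = inhibition: plate controls were basal doxycycline-induced cells for no effect and cells given 10 µM MG132 for full effect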
Conditions: ABC-DLBCL IkBa-CBG/CBR reporter, luminescence ratio (green luciferase fused to IkBa over red control in TMD8 lymphoma cells), 4 h; activity change, negative = inhibition: at 46.1 µM (top of the series) unless noted
Method in brief: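 Compounds up to 46 uM were incubated four hours with TMD8 cells whose green CBG68 luciferase is fused to IkappaBalpha; red CBR luminescence normalised the signal, and concentration-effect curves were fitted to fusion, red and ratio data.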
Potency is read from the fitted curve at half-maximal effect.

Row | Structure (SMILES) | Potency | activity change, negative = inhibition
1 | COc1ccccc1N1CCN(C(=O)c2ccc(-c3ccc(Cl)cc3)o2)CC1 | inconclusive: 18.4 µM [falling, single point] | –
2 | COc1ccc(O)c(/C=N/Nc2nc(Nc3ccccc3)nc(-n3nc(C)cc3C)n2)c1 | inconclusive: 3.55 µM [falling, partial curve, poor fit] | –
3 | NC(=O)c1cc2cc(Br)ccc2oc1=NCc1ccccc1 | – | inconclusive: -8.88%
4 | CC1CCc2cc(F)ccc2N1C(=O)CCl (stereo not drawn) | – | inconclusive: 1.47%
5 | Cn1cc(/C=C2\SC(=S)N(NC(=O)c3ccccc3)C2=O)c2ccccc21 | inconclusive: 10.3 µM [falling, partial curve] | –
6 | Cc1ccc(NC(=O)C2CCC(CNC(=O)[C@@H]3Cc4ccccc4CN3)CC2)cc1 (stereo partly drawn) | inconclusive: 22.4 µM [falling, partial curve] | –
7 | COc1ccc(C2C(C(=O)c3cccs3)=C(O)C(=O)N2c2cccc(C)n2)cc1 (stereo not drawn) | – | inconclusive: -24.1%
8 | CCCCCN1CN(S(=O)(=O)c2cccs2)c2nc3ccccc3nc21 | inconclusive: 15.8 µM [rising, partial curve, poor fit] | –
9 | COc1ccc(N2CCN(CC(=O)Nc3ccc(-n4cnnn4)cc3)CC2)cc1 | – | inactive
10 | O=C(NC(NC(=S)Nc1ccc(Cl)cc1)C(Cl)(Cl)Cl)c1ccco1 (stereo not drawn) | – | inconclusive: -1.7%
11 | CCOC(=O)/C(=C\c1ccc(Cl)cc1)c1nc2sc(C)c(C)c2c(=O)[nH]1 | – | inactive
12 | O=C(NCc1cccc(Cl)c1)c1cccc(OC2CCN(C(=O)C3CC3)CC2)c1 | inconclusive: 11.2 µM [falling, partial curve] | –
13 | Cc1nc2c(-c3ccc(F)cc3)c(C)nn2c(C)c1CCC(=O)N1CCN(c2ccc(F)cc2)CC1 | inconclusive: 6.51 µM [falling, single point] | –
14 | Cc1ccc(S(=O)(=O)N2CCC(C(N)=O)CC2)cc1C(=O)NC1CCCCC1 | – | inactive
15 | N#Cc1cc2c(=O)n3ccccc3nc2n(CCCN2CCOCC2)c1=O | – | inactive
16 | COC(=O)c1cc(=O)n(Cc2ccc(F)cc2)c(=Nc2ccccc2)s1 | – | inconclusive: 0.616%
17 | C=CCc1ccc(OCCCCOc2ccc(C(=O)O)cc2)c(OC)c1 | – | inconclusive: -10.1%
18 | CSc1ccccc1NC(=O)CN(C)CC(=O)c1[nH]c(C)c(C(C)=O)c1C | inconclusive: 29.1 µM [falling, partial curve, poor fit] | –
19 | CC(=O)c1cc(-c2ccccc2)n(CCC(=O)NCCc2ccccc2)c1C | – | inconclusive: 2.66%
20 | CCOc1ccccc1Nc1nnc(SCC(=O)NC(=O)c2cccn2C)s1 | inconclusive: 20.6 µM [falling, single point] | –
21 | CCOc1cc(CNCc2ccccc2)ccc1OCC(=O)NC1CCCCC1 | – | inactive
22 | NC1=NC[C@H](CC2CCCCC2)N1CCc1cc(C(F)(F)F)cc(C(F)(F)F)c1 | – | inconclusive: 1.64%
23 | C/C(=N\NC(=O)c1ccccn1)C12CC3CC(CC(C3)C1)C2 | inconclusive: 31.6 µM [falling, single point] | –
24 | CSc1nsc(SCC(=O)Nc2cccc(NC(C)=O)c2)n1 | inconclusive: 5.01 µM [falling, full curve, poor fit] | –
25 | C/C(=N\NC(=O)c1ccc(Cn2cc(Br)cn2)o1)c1cccc(NC(=O)C(C)(C)C)c1 | inconclusive: 20.6 µM [falling, partial curve, poor fit] | –
26 | C=CCn1c(SCC(=O)Nc2cccc3ccccc23)nc(O)c(CC)c1=O | inconclusive: 11.6 µM [falling, partial curve, poor fit] | –

In the list so far, these have a thiophene ring, fused or not.
Row | Structure (SMILES) | Potency | activity change, negative = inhibition
7 | COc1ccc(C2C(C(=O)c3cccs3)=C(O)C(=O)N2c2cccc(C)n2)cc1 (stereo not drawn) | – | inconclusive: -24.1%
8 | CCCCCN1CN(S(=O)(=O)c2cccs2)c2nc3ccccc3nc21 | inconclusive: 15.8 µM [rising, partial curve, poor fit] | –
11 | CCOC(=O)/C(=C\c1ccc(Cl)cc1)c1nc2sc(C)c(C)c2c(=O)[nH]1 | – | inactive

The list goes on.

Row | Structure (SMILES) | Potency | activity change, negative = inhibition
27 | CC(=O)Nc1ccc(C(=O)c2ccccc2)cc1 | inconclusive: 25.1 µM [falling, single point] | –
28 | CCOC(=O)c1cc(-c2ccccc2)n(CCCC(=O)Nc2ccc(C)cc2Cl)c1C | – | inconclusive: 14.4%
29 | COc1ccc2cc1Oc1ccc(cc1)C[C@H]1c3c(cc(OC)c4c3Oc3c(ccc5c3[C@H](C2)N(C)CC5)O4)CCN1C | – | inconclusive: -0.0391%
30 | COc1cccc(/C=C2/SC(=S)N(CC(=O)NC3C=CS(=O)(=O)C3)C2=O)c1 (stereo not drawn) | inconclusive: 25.1 µM [falling, single point] | –
31 | C[C@H](NC(=O)c1nc[nH]c1C(=O)NCC(=O)OCc1ccccc1)c1ccccc1 | – | inconclusive: -12.9%
32 | COc1ccccc1NS(=O)(=O)c1cc(NC(=O)c2cc[n+]([O-])cc2)ccc1N1CCCC1 | inconclusive: 15.8 µM [falling, partial curve, poor fit] | –
33 | CCSc1oc(-c2ccco2)nc1S(=O)(=O)c1ccc(F)cc1 | – | inconclusive: 2.87%
34 | CCc1c(O)c(-c2ccccc2)c(=O)n(-c2ccccn2)c1-c1ccccc1 | – | inactive
35 | COc1ccc(N2CCN(C(=O)C3Cc4ccccc4CN3C(=O)c3ccco3)CC2)cc1 (stereo not drawn) | – | inconclusive: -1.32%
36 | Cc1ccc(CNc2ncnc3c2cnn3-c2ccc(C)cc2C)cc1 | inconclusive: 35.5 µM [falling, single point] | –
37 | CN(Cc1ccccc1)C(=O)CC(c1ccccc1)c1cc(Cl)ccc1O (stereo not drawn) | – | inconclusive: 15.6%
38 | CCC1=Nc2cc(C(=O)NCCCOC(C)C)ccc2Sc2ccccc21 | inconclusive: 6.51 µM [falling, partial curve, poor fit] | –
39 | O=C(NNC(=O)c1ccc(SCC2CCCO2)c([N+](=O)[O-])c1)c1ccc(F)cc1 (stereo not drawn) | – | inactive
40 | Cn1c(=O)c2[nH]c(N=Nc3ccc(N)cc3N)nc2n(C)c1=O | inconclusive: 12.6 µM [rising, single point] | –
41 | Cc1ccc(NC(=S)N(C)C(c2ccccc2)c2ccccc2)cc1C | – | inconclusive: -4.75%
42 | CCn1nc(C(=O)NNC(=O)c2cc(Cl)ccc2OC)c2ccccc2c1=O | – | inactive
43 | Brc1ccccc1-n1nnc(-c2cccnc2)n1 | – | inconclusive: 2.37%
44 | Cc1cc(C)n(-c2nc(C)c(C)c(=O)n2CC(=O)Nc2ccc(Cl)c(Cl)c2)n1 | – | inactive
45 | CN(C(=O)c1ccc(COc2ccccc2Br)o1)c1ccccc1 | inconclusive: 35.5 µM [falling, partial curve, poor fit] | –
46 | COc1ccc(-c2nnc(SCC(=O)Nc3cccc(Cl)c3C)nc2-c2ccc(OC)cc2)cc1 | – | inactive
47 | CN1CCN(C(CNC(=O)Nc2ccc(Cl)cc2)c2ccc(F)cc2)CC1 (stereo not drawn) | – | inactive
48 | CCOP(=O)(OCC)c1nc(-c2cccc3ccccc23)oc1NCc1ccccc1 | – | inconclusive: 2.14%
49 | Cc1nc(Cl)c(C(=O)NC(=O)NCc2ccccc2)c(C)c1Cl | – | inactive
50 | Cc1ccc(C2CC(=O)NC(SCc3ccccc3)=C2C#N)o1 (stereo not drawn) | – | inconclusive: -15.8%
51 | CCC(C)NC(=O)CN(c1ccc(Cl)c(Cl)c1)S(C)(=O)=O (stereo not drawn) | – | inactive
52 | COC(=O)c1ccc(C)c(NC(=O)C2COc3ccccc3O2)c1 (stereo not drawn) | – | inconclusive: 17%

Row | Structure (SMILES) | Potency | activity change, negative = inhibition
53 | O=C(Nc1cccc2c1C(=O)NC2=O)c1ccccc1[N+](=O)[O-] | – | inactive
54 | COc1ccc(CC(=O)Nc2ccc(C(=O)Nc3nccs3)cc2)cc1OC | – | inconclusive: 4.44%
55 | COc1ccccc1-c1sc2cc3c(cc2c1-c1ccc2c(c1)OCO2)OCO3 | – | inconclusive: 6.47%
56 | COC(=O)CC(NS(=O)(=O)c1cccs1)c1cccc2ccccc12 (stereo not drawn) | – | inconclusive: 14.6%
57 | CSc1sccc1/C=N/O | inconclusive: 0.398 µM [rising, full curve] | –
58 | CCc1cc2c(=O)n(CC(C)C)cnc2s1 | – | inconclusive: 5.63%
59 | Fc1ccc(-c2cnc3n2CCCCC3)cc1 | – | inactive
60 | CCc1ccc(Oc2coc3cc(OCC(=O)Nc4cc(C)ccc4C)ccc3c2=O)cc1 | – | inconclusive: 2.92%
61 | COc1cccc(Nc2n[nH]c(=S)s2)c1 | – | inactive
62 | O=C(NCc1ccccc1Cl)C1CCCN(c2ncnc3c2nc2n3CCCCC2)C1 (stereo not drawn) | – | inconclusive: 7.44%
63 | O=C(NCc1nnc(SCc2ccccc2)n1-c1ccccc1)C12CC3CC(CC(C3)C1)C2 | – | inactive
64 | Cc1cccc(C(=O)O[C@@H]2[C@H](Cc3ccccc3)NS(=O)(=O)[C@H]3C[C@@H]4C=C[C@]23O4)c1 | – | inactive
65 | CCOc1cc(CNCCO)cc(Br)c1OCc1cccs1 | – | inconclusive: -13%
66 | N#Cc1c(Sc2ncc(C(F)(F)F)cc2Cl)nsc1C/C=N\OCc1c(F)cccc1Cl | – | inconclusive: 16.9%
67 | CCCCC(CC)COC1(c2ccccc2)OC(=O)c2ccccc21 (stereo not drawn) | – | inconclusive: 14.6%
68 | NNC(=S)Nc1ccccc1Cl | inconclusive: 17.8 µM [falling, partial curve] | –
69 | c1ccc(Cn2nnc(-c3ccccc3)n2)cc1 | – | inconclusive: 1.36%
70 | CN(C)C(=S)NC(=NCc1ccc([N+](=O)[O-])cc1)c1ccccc1 | inconclusive: 22.4 µM [falling, single point] | –
71 | O=C(CSc1nccn1-c1cccc(Cl)c1)NO | – | inconclusive: -18%
72 | O=C(Nc1cccc(Cl)c1)c1ccc(NCCCN2CCOCC2)c([N+](=O)[O-])c1 | inconclusive: 4.47 µM [falling, full curve, poor fit] | –
73 | Cc1ccc(S(=O)(=O)N/N=C/c2cc(Br)ccc2O)cc1 | – | inconclusive: 14.1%
74 | O=C(O)c1ccc(N2C(=O)/C(=C\c3ccccc3)N=C2c2ccccc2)cc1 | inconclusive: 35.5 µM [falling, single point] | –
75 | Cc1cc(C)nc(NC(N)=NC2CCCCC2)n1 | – | inactive
76 | Cc1ccc(CNC(=O)c2cccc3c2C(=O)c2ccc(N4CCOCC4)cc2S3(=O)=O)cc1 | – | inconclusive: -20.3%
77 | CCn1nnnc1SCCSc1nnnn1CC | – | inconclusive: 9.4%
78 | CN(c1ccccc1)S(=O)(=O)c1ccc(C(=O)Nc2ncccc2O)cc1 | – | inactive
